Results deposited as PubChem BioAssay AID1053208 (Peter MacCallum Cancer Centre, 2014).
Assay: 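Genes whose silencing cuts survival of bone tumour cells only with doxorubicin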 (primary screen). Cell system: mouse osteosarcoma cells, early-passage culture from an engineered mouse model of fibroblastic bone tumour. Reagents: siRNA pool against mouse genes, 40 nM. Duration: about 120 h (48 h before drug, then 72 h with drug). Treatment: doxorubicin 100 nM for 72 h, roughly 30-40% inhibitory dose. Read-out: 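Viability read as ATP luminescence after 72 h of 100 nM doxorubicin or none, duplicate wells averaged, scaled to non-targeting siRNA, then expressed as robust z-scores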. Direction: viability z-score with doxorubicin and doxorubicin viability vs non-targeting: higher = more viable cells under doxorubicin; viability z-score without drug: higher = more viable cells with knock-down alone; z-score of drug to no-drug ratio: higher = less drug sensitisation by knock-down. Call rule: 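Called active if knock-down leaves viability unchanged without drug (z within -2 to 2) but lowers it with doxorubicin (z at or under -2)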.
Shown is an unselected part of about 17,000 reagents tested. 788 of them (4.7%) were called active. 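Calls rest on z-score classes alone; an extra cut-off of viability at most 70% of control was not applied to them.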 No sequences are given here.

The opening 3 entries, ahead of the listing:
gene symbol	combined z-score class	viability z-score with doxorubicin	viability z-score without drug	z-score of drug to no-drug ratio	doxorubicin viability vs non-targeting	outcome
Yipf4	high cell count with doxorubicin only	2.14	0.67	1.8	1.13	inactive
Dact2	no change with or without drug	0.34	1.18	-0.34	0.97	inactive
Asap1	no change with or without drug	0.9	1.69	-0.11	1.02	inactive

Results, repeating the preview:
gene symbol	combined z-score class	viability z-score with doxorubicin	viability z-score without drug	z-score of drug to no-drug ratio	doxorubicin viability vs non-targeting	outcome
Yipf4	high cell count with doxorubicin only	2.14	0.67	1.8	1.13	inactive
Dact2	no change with or without drug	0.34	1.18	-0.34	0.97	inactive
Asap1	no change with or without drug	0.9	1.69	-0.11	1.02	inactive
Fut9	no change with or without drug	0.45	1.18	-0.22	0.98	inactive
Polr1has	no change with or without drug	0.45	0.84	0	0.98	inactive
Or5t15	low cell count with doxorubicin only	-2.47	0.51	-2.81	0.72	active
Rasgrp2	no change with or without drug	0	1.85	-1.01	0.94	inactive
Gm5087	no change with or without drug	0.79	-0.51	1.35	1.01	inactive
Ric3	low cell count without drug only	-0.56	-2.19	1.24	0.89	inactive
Mmp16	no change with or without drug	0	-0.17	0.22	0.94	inactive
Chkb	no change with or without drug	0	-0.84	0.67	0.94	inactive
Baz1a	no change with or without drug	0.56	0.17	0.56	0.99	inactive
Klhl9	no change with or without drug	0	-0.51	0.45	0.94	inactive
Trib3	no change with or without drug	0.34	-0.17	0.56	0.97	inactive
Zmynd8	no change with or without drug	0	-1.01	0.9	0.94	inactive
Stfa1	high cell count with and without drug	2.47	2.36	0.9	1.16	inactive
Pnpla3	no change with or without drug	-0.67	-1.18	0.22	0.88	inactive
Ufc1	no change with or without drug	-1.35	0.17	-1.46	0.82	inactive
Ndufb4	no change with or without drug	-1.57	-0.84	-1.01	0.8	inactive
Zfp414	low cell count with doxorubicin only	-2.02	0.17	-2.14	0.76	active
Gas7	no change with or without drug	-0.67	-0.67	-0.11	0.88	inactive
Rad1	no change with or without drug	0.67	-0.17	0.9	1	inactive
Prr36	no change with or without drug	0.45	0.51	0.22	0.98	inactive
Atg4c	no change with or without drug	0.45	-0.17	0.67	0.98	inactive
Farsb	no change with or without drug	-1.69	-0.84	-1.12	0.79	inactive
Calca	no change with or without drug	-0.22	-0.17	0	0.92	inactive
Zfp352	no change with or without drug	-0.45	-0.17	-0.22	0.9	inactive
Dgkg	no change with or without drug	0.22	0.17	0.22	0.96	inactive
Borcs5	no change with or without drug	0.22	-0.51	0.67	0.96	inactive
Mesd	no change with or without drug	0.22	-0.17	0.45	0.96	inactive
Daw1	no change with or without drug	-0.45	0	-0.34	0.9	inactive
Lemd2	high cell count without drug only	0.67	2.87	-1.01	1	inactive
Slco1b2	no change with or without drug	0.67	-0.34	1.12	1	inactive
Ppib	no change with or without drug	-1.24	1.18	-1.91	0.83	inactive
4632415L05Rik	no change with or without drug	0.34	0.17	0.34	0.97	inactive
Arhgef7	no change with or without drug	-1.12	0	-1.12	0.84	inactive
Pde5a	no change with or without drug	-1.01	-1.52	0.11	0.85	inactive
Cdc34	no change with or without drug	1.57	0.34	1.46	1.08	inactive
Adgrf3	no change with or without drug	-0.22	-0.34	0.11	0.92	inactive
Golga5	no change with or without drug	0.34	0.17	0.34	0.97	inactive
Cd79b	no change with or without drug	0.9	-1.01	1.91	1.02	inactive
Nsun2	no change with or without drug	0.22	-0.84	1.01	0.96	inactive
Akr1c12	no change with or without drug	-0.67	-0.51	-0.22	0.88	inactive
Uvrag	no change with or without drug	-0.22	0.34	-0.34	0.92	inactive
Tcte2	no change with or without drug	-0.45	-0.17	-0.22	0.9	inactive
Aldh5a1	no change with or without drug	0.22	0.17	0.22	0.96	inactive
Pramel39-ps	no change with or without drug	-0.22	-1.01	0.56	0.92	inactive
Yaf2	high cell count without drug only	-0.45	2.53	-1.8	0.9	inactive
Lrrfip1	low cell count with doxorubicin only	-2.14	-1.52	-1.24	0.75	active
Or9r7	no change with or without drug	0.11	-0.34	0.45	0.95	inactive
